The test is described as follows: qHTS Assay for Lipid Storage Modulators in Drosophila S3 Cells.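 On cell number change: cells counted by Cell Tracker Red CMTPX staining in the red channel.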 The following applies: BODIPY lipid droplet fluorescence, 18-24 h; for cell number change: measured here: cell count max response, cells fed with added oleic acid. A digest of the protocol:
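Drosophila S3 cells got compounds at several concentrations plus oleic acid (400 uM solution). Laser-scanning cytometry with 488 nm excitation read lipid droplets at 500-530 nm and cells at 575-640 nm. Percent activity was relative to 20 uM Triacsin C.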
In general terms: Quantitative high-throughput screening tests each substance at several concentrations.

Where [1] appears, read: measured here: cell number channel AC50, cells fed with added oleic acid.
Where [2] appears, read: measured here: lipid fluorescence (Fed channel) AC50, cells fed with added oleic acid.

This is one part of the list. Shown are side measurements of this screen, not its main read-out; they come without a call. Compounds called inactive in the main read-out are mostly missing here. Words in brackets tell the shape of the fitted curve; partial curves, single points and poor fits give uncertain potencies.

Experimental findings from PubChem BioAssay AID2685 (National Center for Advancing Translational Sciences (NCATS), 2010) are described below.

A word on the AC50: it is the concentration giving half of the maximal activity seen. Read a high AC50 as weaker potency. As to `CN(C)CCNC(=O)COc1ccc(Cl)cc1Cl`, the cell number change was -28.9%. Besides, the AC50 under setting [1] is 0.0058 µM [falling, full curve, poor fit].

As to `COc1ccc(OC)c(/C=C/c2nc3ccccc3[nH]c2=O)c1`, the cell number change worked out at 381%. Besides, the AC50 under setting [1] was 18.4 µM [rising, partial curve].

Take `Cc1cccc(C)c1OCc1cc(C(=O)N2CCN3CCCC3C2)no1` (centres undefined): the cell number change was 9.63%. The AC50 under setting [2] is 6.51 µM [rising, single point].

As to `Cc1cc(C)cc(Oc2ccc(NC(=O)C3CC=CCC3C(=O)O)cc2)c1` (centres undefined), the cell number change was determined as 10.2%. Besides, the AC50 under setting [2] is 29.1 µM [falling, partial curve, poor fit].

`CN(C)CCN(C(=O)c1ccco1)c1nc2cc3c(cc2s1)OCCO3`: the cell number change worked out at 9.27%. In addition, the AC50 under setting [2] is 29.1 µM [rising, single point].

As to `CC(=O)Nc1ccc(S(=O)(=O)NNC(=O)c2ccc3c(c2)OCO3)cc1`, the cell number change was -7.2%. For the same compound, under setting [2], the AC50 is 18.4 µM [rising, single point].

Take `O=C(Cn1c(N2CCN(c3ccccc3)CC2)nc2ccccc21)c1ccccc1`: the AC50 under setting [1] is 0.517 µM [rising, single point].

Take `CCSc1nsc(NC(=O)Nc2ccccc2F)n1`: the cell number change is -7.88%.

With `COc1ccc(CCN2CC(C(=O)N(C)CCOc3ccccc3)CCC2=O)cc1` (centres undefined), the cell number change was 111%. The AC50 under setting [1] is 25.9 µM [rising, partial curve].

As to `O=C(NC(=S)Nc1cccc2c(O)cccc12)c1cccc(Br)c1`, the cell number change was -47.9%. Moreover, the AC50 under setting [1] was 20.6 µM [falling, single point]. The AC50 under setting [2] is 20.6 µM [falling, single point].

As to `COc1c(/C=N/Nc2ccc([N+](=O)[O-])cc2[N+](=O)[O-])c(C)nn1-c1ccccc1`, the cell number change was -2.72%. Also, under setting [1], the AC50 is 3.26 µM [falling, partial curve]. The AC50 under setting [2] is 3.26 µM [falling, partial curve].

On to `CCOC(=O)c1c(NC(=O)CN(CC)CC)sc2c1CCN(C(=O)OCC)C2`, for which the cell number change was -21.7%. Further, under setting [2], the AC50 was 0.366 µM [rising, partial curve, poor fit].

As for `CCNC(=S)NNC(=O)c1cc(C)on1`, the cell number change is 22.7%. In addition, under setting [1], the AC50 was 6.51 µM [rising, single point]. Also, the AC50 under setting [2] was 9.2 µM [rising, partial curve, poor fit].

In the case of `c1ccc2c(c1)ccc1nnc(SCc3ccc4c(c3)OCO4)n12`, the cell number change was -32.1%. For the same compound, the AC50 under setting [1] was 29.1 µM [falling, single point]. Besides, under setting [2], the AC50 was 29.1 µM [falling, single point].

As for `COCCSc1nnc(NC(=O)COc2ccc3c(c2)OCO3)s1`, the cell number change turned out to be 19.7%.

Regarding `N#CC1=C(N)NC(SCC(=O)c2ccc(Cl)cc2)=C(C#N)C12CCCC2`, the cell number change was 2.29%. Besides, under setting [1], the AC50 is 0.058 µM [rising, full curve, poor fit].

In the case of `Cc1nnc(C)n1/N=C/c1ccc(C(C)C)cc1`, the cell number change is 20.8%.

On to `CCS(=O)(=O)c1ccc(O)c(NC(=O)COc2ccc(Cl)cc2)c1`, for which the cell number change was -5.2%. For the same compound, the AC50 under setting [2] was 0.517 µM [falling, full curve, poor fit].

Turning to `CCc1ccc(NC(=O)N2CCc3ccccc3C2)cc1`, the AC50 under setting [2] is 0.58 µM [rising, single point].

On to `Cc1nc2c(nnn2Cc2ccccc2)c(=O)n1-c1ccccc1`, for which the cell number change is 39.4%. In addition, the AC50 under setting [1] is 0.0259 µM [rising, full curve, poor fit]. For the same compound, the AC50 under setting [2] was 29.1 µM [rising, single point].

Turning to `O=[N+]([O-])c1cc(C(F)(F)F)ccc1NCCNC(=S)Nc1ccc(Cl)cc1`, the cell number change is -36.1%. For the same compound, the AC50 under setting [2] was 29.1 µM [falling, single point].

Consider `COc1ccc([N+](=O)[O-])c(OC)c1C(=O)NC(=O)Nc1c(F)cc(F)cc1F`, for which the cell number change was found to be 1.06%.

Turning to `C[n+]1c(/C=C/c2ccc(O)cc2)ccc2ccccc21`, the cell number change is -25.2%. Moreover, the AC50 under setting [2] is 16.4 µM [falling, single point].

With `O=C(NCCCCc1ccccc1)Nc1ccc(F)cc1F`, the cell number change worked out at 8.38%.

Take `COc1ccc(CCC(=O)NNC(=O)c2cc(Cl)ccc2OC)cc1OC`: the cell number change was determined as 18.3%. The AC50 under setting [2] is 0.13 µM [rising, full curve, poor fit].

For `NC(=O)CC(NC(=O)Cc1ccc(Br)cc1)c1ccc(N2CCC(N3CCCC3)CC2)c([N+](=O)[O-])c1` (centres undefined), the cell number change was found to be 31.1%. The AC50 under setting [1] is 16.4 µM [rising, partial curve, poor fit]. Further, the AC50 under setting [2] was 23.1 µM [rising, single point].

For the compound `Cc1cc(=O)oc2cc(NC(=O)Cc3ccccc3[N+](=O)[O-])ccc12`, the cell number change worked out at 30.3%. Moreover, under setting [1], the AC50 is 0.00517 µM [rising, full curve, poor fit].

Consider `c1ccc(OCCCc2nc(-c3ccncc3)no2)cc1`, for which the cell number change was -2.04%.

As for `O=C(CCS(=O)(=O)c1ccccc1)NC12CC3CC(CC(C3)C1)C2`, the cell number change is -52.6%. For the same compound, the concentration at half-maximal activity (AC50) under setting [1] is 13 µM [falling, partial curve]. Besides, the AC50 under setting [2] was 6.51 µM [falling, full curve].

Consider `CCn1c(=O)c(CCC(=O)NCC2CCCO2)c(C)c2c(C)nn(-c3ccc(C)cc3)c21` (centres undefined), for which the cell number change is -3.61%. Besides, the AC50 under setting [2] was 3.66 µM [falling, single point].

Consider `COc1ccc(N2C(=O)/C(=C\c3ccco3)N=C2SCC(N)=O)cc1Cl`, for which the cell number change worked out at 55.9%.

In the case of `O=Cc1cn(CC(O)CN2CCCCC2)c2ccccc12` (centres undefined), the cell number change was 12.5%.

As for `CCC(C)Nc1nc(-c2ccccn2)nc2ccccc12` (centres undefined), the cell number change is -17.9%. Under setting [2], the AC50 is 18.4 µM [falling, single point].

With `CCOC(=O)c1c(NC(=S)NC(=O)c2ccc(Cn3cc(Cl)cn3)o2)sc2c1CCCCC2`, the cell number change turned out to be 22.5%. Besides, under setting [1], the AC50 was 0.82 µM [rising, full curve, poor fit].

Turning to `O=C(Cn1ncc(N2CCCC2)c(Cl)c1=O)c1ccc(Cl)cc1`, the cell number change came out at 12.6%.

Turning to `CCN(CC)S(=O)(=O)c1ccc(OC)c(NC(=O)COc2ccc3c(C)cc(=O)oc3c2)c1`, the cell number change came to 2.21%. Besides, the AC50 under setting [2] was 0.092 µM [rising, full curve, poor fit].

For the compound `C=CCn1c(SCCCc2ccccc2)nc2c1c(=O)[nH]c(=O)n2C`, the cell number change was 8.49%. Under setting [2], the AC50 was 0.092 µM [rising, full curve].

As to `O=S(=O)(NCc1ccc2c(c1)OCO2)c1ccccc1F`, the cell number change was -17.3%. In addition, the AC50 under setting [1] is 0.092 µM [falling, full curve, poor fit].

As to `Cc1ccc(NC(=O)C2CCCN2S(=O)(=O)c2ccc(F)cc2)c(C)c1` (centres undefined), the AC50 under setting [1] was 1.16 µM [rising, partial curve].

Regarding `COc1cccc(C(=O)NCCS(=O)(=O)N2CCCCC2)c1`, the AC50 under setting [2] was 0.259 µM [rising, full curve, poor fit].
